Reference: patent US20120149635A1
These are yes or no findings as the source states them, for the method shown. Some binding calls cover weakened binding; strength is not graded here.

T1: calcitonin receptor on T47D cells (UniProt P30988)
T1 sequence (looked up): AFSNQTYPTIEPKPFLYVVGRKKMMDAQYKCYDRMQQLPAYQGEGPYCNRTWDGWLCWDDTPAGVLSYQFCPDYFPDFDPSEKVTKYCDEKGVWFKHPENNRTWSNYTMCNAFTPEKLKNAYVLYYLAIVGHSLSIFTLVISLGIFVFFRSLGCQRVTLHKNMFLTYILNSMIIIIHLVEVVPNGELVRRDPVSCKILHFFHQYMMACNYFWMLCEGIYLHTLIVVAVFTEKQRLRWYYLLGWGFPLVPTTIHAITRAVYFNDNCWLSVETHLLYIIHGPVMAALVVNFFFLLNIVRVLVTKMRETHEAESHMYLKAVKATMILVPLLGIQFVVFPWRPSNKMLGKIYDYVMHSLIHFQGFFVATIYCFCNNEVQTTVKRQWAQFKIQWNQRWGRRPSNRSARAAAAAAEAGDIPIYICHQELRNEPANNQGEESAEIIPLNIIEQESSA


How the values were obtained:
[1] = molecular target: T1, calcitonin receptor on T47D cells; experiment: assay that measures binding to calcitonin receptors on T47D cells
[2] = molecular target: T1, calcitonin receptor on T47D cells; experiment: binding to calcitonin receptors on T47D cells (FIG. 4)

Binder	binding [1]	binding [2]
CSNLSTCVLGKLSQELHKLQTYPRTNTGSNTY [UGP269 (SEQ ID NO:12)]	binds	binds
CSNLSTCVLGKLSQELHKLQTYPRTDVGANTY (acylated at the N-terminus with acetate (acetyl group on cysteine-1)) [UGP281 (SEQ ID NO:14)]	binds	binds

Now from value to binder:

binding [1]	binding [2]	Binder
binds	binds	CSNLSTCVLGKLSQELHKLQTYPRTDVGANTY [UGP 271 (SEQ ID NO:13)]
binds	binds	CSNLSTCVLGKLSQELHKLQTYPRTNTGSGTP [salmon calcitonin]
